The source of these data is the M2OR odorant receptor database.

Chains of the proteins cited; added tags and fusions are not shown. Lines headed by an entry give the natural chain unless they say otherwise; changes in a name come on top.
UniProt Q8NH87: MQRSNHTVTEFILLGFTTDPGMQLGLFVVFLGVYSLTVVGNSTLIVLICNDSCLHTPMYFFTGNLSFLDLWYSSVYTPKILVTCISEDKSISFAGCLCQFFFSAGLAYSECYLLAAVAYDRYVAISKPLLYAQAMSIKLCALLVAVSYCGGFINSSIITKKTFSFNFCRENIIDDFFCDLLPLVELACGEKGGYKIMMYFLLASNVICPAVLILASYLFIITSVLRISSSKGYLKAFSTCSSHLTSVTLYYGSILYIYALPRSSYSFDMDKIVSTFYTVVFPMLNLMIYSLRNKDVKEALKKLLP
UniProt Q8NGQ1: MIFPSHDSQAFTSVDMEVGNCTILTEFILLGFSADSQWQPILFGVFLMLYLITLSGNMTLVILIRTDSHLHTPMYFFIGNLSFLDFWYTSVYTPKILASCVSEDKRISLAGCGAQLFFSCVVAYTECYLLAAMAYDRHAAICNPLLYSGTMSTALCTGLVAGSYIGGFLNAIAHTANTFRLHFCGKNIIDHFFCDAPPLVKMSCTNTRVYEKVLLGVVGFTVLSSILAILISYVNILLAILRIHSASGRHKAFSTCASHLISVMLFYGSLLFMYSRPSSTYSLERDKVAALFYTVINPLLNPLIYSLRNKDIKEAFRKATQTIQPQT

Common to all, as to details: stereoisomer not certain
One test deals with T1, OR8U9.
T1 sequence (whole entry): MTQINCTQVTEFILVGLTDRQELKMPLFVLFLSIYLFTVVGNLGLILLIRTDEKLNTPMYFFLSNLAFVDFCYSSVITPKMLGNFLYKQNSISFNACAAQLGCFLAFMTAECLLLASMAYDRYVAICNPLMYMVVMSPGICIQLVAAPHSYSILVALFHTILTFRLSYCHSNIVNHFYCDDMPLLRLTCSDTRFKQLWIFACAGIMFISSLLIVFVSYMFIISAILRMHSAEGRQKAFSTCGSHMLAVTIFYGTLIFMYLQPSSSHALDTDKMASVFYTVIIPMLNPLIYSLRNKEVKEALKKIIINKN
Put shortly: (§1)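 Whether a receptor–molecule pair is responsive (active) rests on the original authors' judgment that its measured signal was statistically different from baseline. Pairs without that judgment are non-responsive (inactive). Sources used varied assay methods, commonly transient luciferase assays in mammalian cell lines.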

Another test deals with T2, OR9A2.
T2 sequence (whole entry): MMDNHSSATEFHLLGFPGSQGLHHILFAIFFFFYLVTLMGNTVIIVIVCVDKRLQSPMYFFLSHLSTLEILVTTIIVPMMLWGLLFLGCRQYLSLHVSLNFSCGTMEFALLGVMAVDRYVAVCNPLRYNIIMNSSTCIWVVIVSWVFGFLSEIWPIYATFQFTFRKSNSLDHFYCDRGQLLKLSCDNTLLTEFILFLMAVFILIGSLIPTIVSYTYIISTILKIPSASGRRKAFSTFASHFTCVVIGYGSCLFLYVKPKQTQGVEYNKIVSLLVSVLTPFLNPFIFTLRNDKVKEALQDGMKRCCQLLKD
Put shortly: as §1

The next test deals with T3, OR9A4 (Homo sapiens) (UniProt Q8NGU2).
T3 sequence (whole entry): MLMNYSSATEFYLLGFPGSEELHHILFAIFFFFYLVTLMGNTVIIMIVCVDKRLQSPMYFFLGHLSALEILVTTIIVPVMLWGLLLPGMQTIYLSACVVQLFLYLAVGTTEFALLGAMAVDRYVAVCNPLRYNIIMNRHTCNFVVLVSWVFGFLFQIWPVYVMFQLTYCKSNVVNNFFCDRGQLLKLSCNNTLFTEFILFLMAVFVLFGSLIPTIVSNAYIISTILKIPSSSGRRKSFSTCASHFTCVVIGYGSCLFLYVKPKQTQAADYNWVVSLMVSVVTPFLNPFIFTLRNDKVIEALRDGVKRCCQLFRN
Summed up: as §1

The next test addresses OR9A2 (Homo sapiens) (UniProt Q8NGT5). Summed up: as §1
Another test addresses OR9G1 (Homo sapiens) (UniProt Q8NH87). Summed up: as §1
The target in another test is OR9G4 (Homo sapiens) (UniProt Q8NGQ1). Put shortly: as §1

Only a part is listed here, and it is no random draw. The calls were merged from several studies; some rest on single wells. The list shows a part of the results.
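Further: active if original authors judged signal statistically different from baseline.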

Turning to `C=CC(C)(O)CCC=C(C)C` (stereo unspecified), the “odorant receptor agonist call” value in the test with OR8U9, with OR9A2 and in the test with OR9A4 (Homo sapiens) was “inactive” each time.
For the compound `O=CCc1ccccc1`, the “odorant receptor agonist call” value with OR8U9, in the test with OR9A2 and with OR9A4 (Homo sapiens) was “inactive” in each case.
Turning to `CC1COCc2cc3c(cc21)C(C)(C)C(C)C3(C)C` (stereo unspecified), the “odorant receptor agonist call” value in the test with OR8U9, with OR9A2 and with OR9A4 (Homo sapiens) was “active” throughout.
Turning to `CC12C=CCC1C1CCC3CC(=O)CCC3(C)C1CC2` (stereo unspecified), the “odorant receptor agonist call” value with OR8U9, with OR9A2 (Homo sapiens), with OR9A2, with OR9A4 (Homo sapiens), with OR9G1 (Homo sapiens) and with OR9G4 (Homo sapiens) was “inactive” in each case.
With `CCCCCCCCCCC=O`, the “odorant receptor agonist call” value in the test with OR8U9, with OR9A2 and with OR9A4 (Homo sapiens) was “inactive” each time.
Turning to `CCCCCCCOC(C)=O`, the “odorant receptor agonist call” value with OR8U9 and with OR9A2 was “inactive” throughout. The “odorant receptor agonist call” value with OR9A4 (Homo sapiens) was “active”.
As for `CC1=NC(C)SC1C` (stereo unspecified), the “odorant receptor agonist call” value in the test on OR8U9, in the test on OR9A2 and with OR9A4 (Homo sapiens) was “inactive” in each case.
`O=C1CCCCCCCCCCCCCCO1`: the “odorant receptor agonist call” value with OR8U9, with OR9A2 and with OR9A4 (Homo sapiens) was “inactive” throughout.
As for `CC(=O)OC1CC2CCC1(C)C2(C)C` (stereo unspecified), the “odorant receptor agonist call” value in the test on OR8U9 and in the test on OR9A2 was “inactive” in each case. Moreover, in the test with OR9A4 (Homo sapiens), the “odorant receptor agonist call” value was “active”.
As to `CC=Cc1ccc(O)c(OC)c1`, the “odorant receptor agonist call” value with OR8U9, in the test on OR9A2 and in the test with OR9A4 (Homo sapiens) was “inactive” each time.
Regarding `COc1ccccc1O`, the “odorant receptor agonist call” value in the test with OR8U9 and in the test with OR9A2 was “inactive” in each case. The “odorant receptor agonist call” value with OR9A4 (Homo sapiens) is “active”.
Take `CC12C=CCC1C1CCC3=CC(=O)CCC3(C)C1CC2` (stereo unspecified): the “odorant receptor agonist call” value in the test with OR8U9, in the test with OR9A2 and with OR9A4 (Homo sapiens) was “inactive” throughout.
As to `COc1cc(C=O)ccc1O`, the “odorant receptor agonist call” value in the test on OR8U9, in the test on OR9A2 and with OR9A4 (Homo sapiens) was “inactive” throughout.
Consider `CC12CCC(CC1)C(C)(C)O2`, for which the “odorant receptor agonist call” value in the test with OR8U9, with OR9A2 and with OR9A4 (Homo sapiens) was “inactive” in each case.
Consider `CCCCCCCC=O`, for which the “odorant receptor agonist call” value with OR8U9, in the test with OR9A2 and with OR9A4 (Homo sapiens) was “inactive” in each case.
Take `CCCCCOC(C)=O`: the “odorant receptor agonist call” value with OR8U9 and in the test with OR9A2 was “inactive” in each case. For the same compound, the “odorant receptor agonist call” value with OR9A4 (Homo sapiens) was “active”.
For the compound `C=CCSCC=C`, the “odorant receptor agonist call” value in the test with OR8U9, in the test on OR9A2 and in the test with OR9A4 (Homo sapiens) was “inactive” throughout.
For the compound `CC(C)=CCCC(C)=CC=O`, the “odorant receptor agonist call” value in the test with OR8U9, in the test on OR9A2 and with OR9A4 (Homo sapiens) was “inactive” throughout.
On to `CC1=CCC(C(C)(C)O)CC1` (stereo unspecified), for which the “odorant receptor agonist call” value with OR8U9, in the test with OR9A2 and with OR9A4 (Homo sapiens) was “inactive” throughout.
Consider `CC(=O)C(C)=O`, for which the “odorant receptor agonist call” value with OR8U9, in the test with OR9A2 and in the test with OR9A4 (Homo sapiens) was “inactive” each time.
For the compound `CCC=CCCO`, the “odorant receptor agonist call” value in the test on OR8U9, in the test on OR9A2 and with OR9A4 (Homo sapiens) was “inactive” each time.
